From PubChem BioAssay AID2685 (National Center for Advancing Translational Sciences (NCATS), 2010)
In all, about 320,000 compounds went through this assay and about 2,100 (0.66%) were called active. Inconclusive results, whose numbers are uncertain, are shown with a selection of clear calls. Calls come from the whole dose curve; as a rule, active = well fitted inhibition curve with a large enough effect in the signal ratio, with a control signal flat (not every such curve was filed as active); inconclusive = small, poorly fitted or top-dose-only effect, or effect the other way, or a change in a side signal; inactive = flat fitted curve, though single readings scatter; the % refers to the signal ratio. Potencies of inconclusive entries are doubtful fits and often do not repeat.

Assay: qHTS Assay for Lipid Storage Modulators in Drosophila S3 Cells
Conditions: BODIPY lipid droplet fluorescence, 18-24 h, cells fed with added oleic acid; lipid storage change, negative = inhibition: at 46.1 µM (top of the series) unless noted
In short: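 Drosophila S3 cells loaded with oleic acid (400 uM, as added) and compounds at several concentrations; lipid droplets imaged by 488-nm laser-scanning cytometry, 500–530 nm intensity and object ratio to cell channel. Percent activity normalized to 20 uM Triacsin C.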
% is set by controls: 0 for no effect and ±100 for the full control effect; potency is the fitted concentration of half-maximal effect.

Row | SMILES | Potency | lipid storage change, negative = inhibition | outcome
1 | CSc1ccc(S(=O)(=O)N2CCC(C(=O)Nc3ccc(NC(C)=O)cc3)CC2)cc1 | inconclusive: 29.1 µM [activator, partial curve] | – | –
2 | COc1ccc(-c2nn(-c3ccccc3)cc2C(=O)NCCCn2ccnc2)cc1 | – | inconclusive: -6.68% | –
3 | Cc1ccc(F)cc1NC(=O)COC(=O)C1CCN(c2ccc(C(F)(F)F)cn2)CC1 | inconclusive: 1.84 µM [rising, partial curve] | – | –
4 | Cn1cc(/C=C(\C(=O)O)C(C(=O)O)=C2CCCCC2)c2ccccc21 | inconclusive: 29.1 µM [cytotoxic, single point] | – | –
5 | S=C(NCCN1CCOCC1)Nc1ccc(Cl)cc1 | – | inconclusive: 11% | –
6 | CCCCN(CC)S(=O)(=O)c1ccc(C(=O)N=c2sc3cc(NC(C)=O)ccc3n2C)cc1 | inconclusive: 6.51 µM [cytotoxic, single point] | – | –
7 | COC(=O)c1cccc(NC(=O)Cc2nc(-c3ccccc3)sc2-c2ccc(C)cc2)c1 | – | inconclusive: -1.28% | –
8 | Cc1ccc(S(=O)(=O)N2CCN(C(=O)N3CCCC3)CC2)cc1 | – | inconclusive: 71.1% | –
9 | COc1cccc(CNC(=O)c2cc(C3CC3)nc3c2cnn3C(C)C)c1 | – | inactive: -14.5% | –
10 | CC(C)c1ccc(NC(=O)C2CCN(c3ncnc4c3nc3n4CCCCC3)CC2)cc1 | – | inconclusive: -34.8% | –
11 | CC(Sc1nnc(-c2ccccc2F)n1C1CC1)C(=O)NCc1ccco1 (stereo not drawn) | inconclusive: 20.6 µM [falling, single point] | – | –
12 | Cc1cc(C)nc(NS(=O)(=O)c2ccc(N/C=C/C(=O)c3ccc(Cl)c(Cl)c3)cc2)n1 | – | inconclusive: 49.6% | –
13 | O=C(O)CCCC(=O)Nc1cccc(-c2nc3ccccc3[nH]2)c1 | – | inconclusive: -16.3% | –
14 | Cc1c(C)n(CCC#N)c2ccccc12 | – | inconclusive: 16.8% | –
15 | COc1ccc(NS(=O)(=O)c2ccc(O)c(C(=O)OCC(=O)Nc3ccc4c(c3)OCCO4)c2)cc1 | inconclusive: 5.8 µM [activator, full curve, poor fit] | – | –
16 | CC1CCN(C(=S)NC(=O)c2ccccc2)CC1 | – | inconclusive: 7.95% | –
17 | CCOC(=O)c1csc(NC(=O)C2=COCCO2)n1 | – | inconclusive: -54.5% | –
18 | CCOCCc1nnc(NC(=O)c2cccs2)s1 | inconclusive: 1.3 µM [falling, full curve] | – | –
19 | COc1ccc(OCC(=O)N2CCN(S(=O)(=O)c3ccc(Cl)s3)CC2)cc1 | – | inconclusive: 20.4% | –
20 | COC(=O)c1cc2cc(Cl)ccc2nc1SC | – | inconclusive: 5.44% | –
21 | COc1ccc2oc(C)c(C(N)=O)c2c1 | inconclusive: 29.1 µM [falling, single point] | – | –
22 | COC(=O)c1ccc(NC(=O)C[n+]2ccccc2)cc1 | inconclusive: 5.8 µM [activator, full curve] | – | –
23 | COC(=O)c1cc(NC(=O)c2ccccc2)c(=O)oc1C | – | inconclusive: 24.3% | –
24 | CN(C)CCNC(=O)Cc1ncc(C(F)(F)F)cc1Cl | inconclusive: 0.146 µM [falling, full curve, poor fit] | – | –
25 | COc1ccc(C(CNC(=O)CNC(=O)c2ccccc2)N2CCCC2)cc1 (stereo not drawn) | – | inconclusive: 34.5% | –
26 | CCOC(=O)N1CCC(N2CC34C=CC(O3)C(C(=O)Nc3ccc(F)cc3)C4C2=O)CC1 (stereo not drawn) | inconclusive: 0.116 µM [activator, partial curve, poor fit] | – | –

Row | SMILES | Potency | lipid storage change, negative = inhibition | outcome
27 | Cc1ccccc1C(=O)N1CCN(CCNC(=O)C(=O)Nc2ccc(Br)cc2)CC1 | inconclusive: 11.6 µM [activator, single point] | – | –
28 | Cc1ccc(C(C)C)c(OCCNC(=S)Nc2cccc3ccccc23)c1 | – | inconclusive: -72.5% | –
29 | Cc1cc(C)n(CC(=O)NNC(=O)COc2ccc(Cl)cc2Cl)n1 | inconclusive: 3.66 µM [activator, partial curve, poor fit] | – | –
30 | O=C1OC(N2CCN(C/C=C/c3ccccc3)CC2)c2ccccc21 (stereo not drawn) | – | inconclusive: -36.3% [at 0.0737 µM] | –
31 | COc1ccc(-n2c(SCC(=O)O)nc3sc4c(c3c2=O)CCCC4)cc1 | – | inconclusive: 10.4% | –
32 | O=C(Cc1ccc(Br)cc1)Nc1ccc(S(=O)(=O)N2CCCC2)cc1 | – | inconclusive: -100% | –
33 | Cc1cc(C)n2nc(SCC(=O)Nc3ccc(O)cc3)nc2n1 | – | inconclusive: -16% | –
34 | CC(C)CN1CCC(=O)N([C@H](COc2ccccc2)Cc2ccccc2)CC1 | inconclusive: 0.58 µM [activator, partial curve] | – | –
35 | O=C(O)c1cccc2c1C(=O)c1ccc(-c3ccc(F)cc3F)cc1S2(=O)=O | – | – | inactive [at 46.1 µM]
36 | CCOC(=O)N1CCN(c2cc(=O)n(-c3cccc(Br)c3)c(=O)[nH]2)CC1 | – | inconclusive: 1.73% | –
37 | C=CCn1c(=N)n(CC(=O)OCC)c2ccccc21 | – | inactive: -3.21% | –
38 | Cc1ccccc1NC(=O)N1CCN(c2ncccn2)CC1 | – | inconclusive: 17.8% | –
39 | COc1cc(NC(=O)c2cc3c(CO)cnc(C)c3oc2=Nc2cccc(C(N)=O)c2)cc(OC)c1 | – | inconclusive: 39.2% | –
40 | COc1ccccc1N1CCN(C2=Nc3cccc4cccc2c34)CC1 | – | inconclusive: -32% | –
41 | CN(C)CC#CCCCCCCC#CCN(C)C | – | inconclusive: -48.7% | –
42 | CCC(C(=O)NC1CCCC1)N(C(=O)Cn1nnc(-c2ccc(C)o2)n1)c1cccc(O)c1 (stereo not drawn) | – | inconclusive: -6.97% | –
43 | CCCc1cc2c(=O)c(-c3ccc4c(c3)OCCO4)coc2cc1OS(C)(=O)=O | – | inconclusive: -28.6% | –
44 | O=c1[nH]c2ccccc2n2c(-c3ccncc3)nnc12 | – | inactive: -8.9% | –
45 | Cc1ccc(S(=O)(=O)NC(C)(C)CN2CCNCC2)cc1 | – | inconclusive: 10.5% | –
46 | Cc1ccn2cc(-c3nonc3C)cc2c1 | inconclusive: 6.51 µM [activator, single point] | – | –
47 | CN(C)CCCN(C(=O)c1ccc(Cl)s1)c1nc2cc3c(cc2s1)OCO3 | – | inconclusive: 18.4% | –
48 | Cn1c(=O)[nH]c(=O)c2c1nc(N(CCO)Cc1ccccc1)n2Cc1ccccc1Cl | – | inconclusive: 71.4% | –
49 | Cc1cccc(C)c1NC(=O)Nc1ccc2c(c1)OCO2 | – | inconclusive: 3.36% | –
50 | O=C(NC1CCCCC1)C(c1ccc(F)cc1)N(Cc1ccco1)C(=O)c1csnn1 (stereo not drawn) | inconclusive: 29.1 µM [falling, single point] | – | –
51 | CCCCNc1c(-c2ccc(SC3CCCCC3)cc2)nc2ccccn12 | – | inconclusive: -37% | –
52 | Cc1[nH]c2ccccc2c1C(=O)CSc1ccc(Cl)cc1 | – | inconclusive: -5.1% | –

Row | SMILES | Potency | lipid storage change, negative = inhibition | outcome
53 | COc1ccc2[nH]c(C)c(CN3CCCCC3)c(=O)c2c1 | – | inactive: -27.3% | –
54 | CCCCN(C(C)=O)c1c(N)n(CCC)c(=O)n(CC(=O)Nc2cc(Cl)cc(Cl)c2)c1=O | – | inconclusive: -17.9% | –
55 | Nc1nc(Cn2nnc(-c3ccccc3Cl)n2)nc(N2CCOCC2)n1 | inconclusive: 5.17 µM [activator, partial curve, poor fit] | – | –
56 | Cc1ccc(N2CCN(S(=O)(=O)c3ccc4c(c3)n(C)c(=O)c(=O)n4C)CC2C)cc1 (stereo not drawn) | – | inactive: -1.8% | –
57 | Cc1ccc(C)c(OCC(=O)O/N=C(\N)c2cccc([N+](=O)[O-])c2)c1 | – | inconclusive: 33.1% | –
58 | Cc1ccc(F)cc1NC(=O)CCc1c(C)nn(-c2ccc(N3CCCCC3)nn2)c1C | inconclusive: 29.1 µM [cytotoxic, single point] | – | –
59 | CCOC(=O)c1c(NC(=O)c2ccccc2Cl)sc2c1CCc1ccccc1-2 | inconclusive: 3.26 µM [activator, partial curve] | – | –
60 | CCc1ccc(Oc2nnnn2-c2ccc(C(N)=O)cc2)cc1 | – | inconclusive: 22.2% [at 9.22 µM] | –
61 | O=C(NC1CC1)c1cc2cc3ccccc3nc2s1 | – | inconclusive: -39.8% | –
62 | COc1ccccc1S(=O)(=O)N1CCn2cccc2C1C (stereo not drawn) | – | inconclusive: -11.3% | –
63 | COc1ccc(C(=O)N(CCc2ccccc2)Cc2ccccc2)c(OC)n1 | inconclusive: 2.06 µM [falling, full curve] | – | –
64 | CCn1c(C)nnc1SCC(=O)Nc1ccc(Cl)cc1 | – | inconclusive: 23.6% | –
65 | CC(=O)NC(=S)Nc1ccc2oc(=O)ccc2c1 | – | inconclusive: 0.246% | –
66 | O=C(CSc1oc(-c2ccco2)nc1S(=O)(=O)c1ccc(Cl)cc1)NCC1CCCO1 (stereo not drawn) | inconclusive: 0.326 µM [rising, full curve] | – | –
67 | CC(=O)NNC(=O)c1sc(=S)n(C)c1C | – | inconclusive: -19.1% | –
68 | COc1cc(S(=O)(=O)N2CCN(C(=O)c3ccccc3F)CC2)c(OC)cc1NC(C)=O | – | inconclusive: 17.6% | –
69 | CNC(=S)NNC(=O)c1cc(C(C)(C)C)nn1Cc1ccc(F)cc1 | – | inconclusive: -0.624% | –
70 | CCCCN(C(=O)c1cc(S(=O)(=O)N2CCCCCC2)ccc1OC)c1ccccc1 | – | inconclusive | –
71 | Nc1c(Cl)c(Cl)nc(C(=O)OCC(=O)N2CCCC2=O)c1Cl | inconclusive: 10.3 µM [activator, partial curve] | – | –
72 | N=c1c(C(=O)NCC2CCCO2)cc2c(=O)n3ccccc3nc2n1C1CCCC1 (stereo not drawn) | inconclusive: 0.0046 µM [activator, full curve, poor fit] | – | –
73 | Cc1c(NC(=S)NC(NC(=O)C(C)C)C(Cl)(Cl)Cl)c(=O)n(-c2ccccc2)n1C (stereo not drawn) | – | inconclusive: -3.62% | –
74 | COc1ccccc1NC(=O)NNC(=O)c1ccc2ccccc2c1 | – | inconclusive: 42.1% | –
75 | COc1cc(CNC2CCCC2)cc(Cl)c1OCc1ccc(F)cc1 | – | inconclusive: -12.9% | –
76 | CCOc1ccc(-c2nc(-c3ccccc3C)no2)cc1 | – | inconclusive: 70.4% | –
77 | CC(=O)c1cc(OC(=O)c2ccncc2)ccc1OC(=O)c1ccncc1 | – | inconclusive: -8.77% | –
78 | O=c1c2cc(Br)cc(Br)c2oc2nc3n(c(=O)c12)CCCS3 | – | inconclusive: 32.5% | –
